A short description of the data set: general procedure: solution-phase peptide synthesis; N-hydroxysuccinimide active ester (Boc-Gly2-(MCM)Gly-OSu, 9) with Et3N in DMSO. The conditions noted are these: TFA salt, Et3N/Na salts.

Values joined by “and” are separate entries in the source; they are usually repeats but may differ in a detail not shown here. Equal values may be shown once.

This is an account of results in US20210139540A1 (priority 2014, published 2021).

With “[CF3COOH.H-(Gly2CMGly)5Gly2-NHCH2]4C, Et3N-salt”, the step yield (late stage modification step) worked out at 98%.
With {Boc-[Gly2(MCMGly)]Gly2-NHCH2}4C, where the note is “coupling step”, the step yield was determined as 68%.
For the substance “(Mal-βAla-(Gly2CMGly)5Gly2-NHCH2)3[DE-CO(CH2)4CO-(Gly2CMGly)5Gly2-NHCH2]C”, the step yield (late stage modification step) amounted to 70%.
Regarding {Boc-[Gly2(MCMGly)]2Gly2-NHCH2}4C, for the setting “coupling step”, the step yield was 71%.
On to {CF3COOH.H-[Gly2(MCMGly)]5Gly2-NHCH2}4C, for which the step yield (late stage modification step) is listed as 99%.
The same measure, in the same setting: with {CF3COOH.H-[Gly2(MCMGly)]Gly2-NHCH2}4C the figure was 99%.
In the case of {Boc-[Gly2(MCMGly)]3Gly2-NHCH2}4C, for the setting “coupling step, run 1”, the step yield was 71% and 94% and 74%.
In the case of {Boc-[Gly2(MCMGly)]4Gly2-NHCH2}4C, the step yield (coupling step) worked out at 96%.
On to “{CF3COOH.H-[Gly2 (MCMGly)]4Gly2-NHCH2}4C”, for which the step yield (late stage modification step) is on record as 96%.
Regarding {CF3COOH.H-[Gly2(MCMGly)]2Gly2-NHCH2}4C, the step yield (late stage modification step) is reported as 98%.
With “(MUT21-Mal-βAla-(Gly2CMGly)5Gly2-NHCH2)3[DE-CO(CH2)4CO-(Gly2CMGly)5Gly2-NHCH2]C (SQTNDKHKRDTYPC; trimeric maleimide-CMG linker lipid construct)”, where the note is “conjugation step”, the conjugation yield is 84%.
{Boc-[Gly2(MCMGly)]5Gly2-NHCH2}4C: under “coupling step”, the step yield was found to be 95%.
In the case of {CF3COOH.H-[Gly2(MCMGly)]3Gly2-NHCH2}4C, the step yield (late stage modification step) turned out to be 99%.
On to “[H-(Gly2CMGly)5Gly2-NHCH2]3[DE-CO(CH2)4CO-(Gly2CMGly)5Gly2-NHCH2]C, Na, Et3N-salt”, for which the step yield (lipidation step) was 25.5%.
